Test results: PubChem BioAssay AID504467 (National Center for Advancing Translational Sciences (NCATS), 2011)
The whole screen tested about 330,000 compounds, of which about 7,700 (2.3%) were called active. Inconclusive means that the source gave no clear call. Such entries were picked first, then a sample of the others. Calls follow the shape of the dose curve; as a rule, active = well fitted inhibition curve with a large enough effect; inconclusive = small, poorly fitted or top-dose-only effect, or effect the other way; inactive = flat fitted curve, though single readings scatter. Potencies beside an inconclusive call are fits to weak or partial responses and may not hold up.

Test: qHTS screen for small molecules that inhibit ELG1-dependent DNA repair in human embryonic kidney (HEK293T) cells expressing luciferase-tagged ELG1; also: nearly all actives have a fitted effect of over 55% in size
Conditions: HEK293T ELG1-luciferase reporter, luminescence, 16 h, DNA damage induced by 5-fluorouridine; activity change, negative = inhibition: at 46.1 µM (top of the series)
Outline: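 5-Fluorouridine DNA damage + compound/DMSO, 2,000 cells/well, 16 h, 37 °C/5% CO2. ONE-Glo, 30 min RT, luminescence. Readout = decrease in reporter signal.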
% is scaled to controls: 0 for no effect and ±100 for the full control effect; potency is read from the fitted curve at half-maximal effect.

Question: With `Cc1ccc2oc(-c3cccc(NC(=S)NC(=O)c4cccs4)c3)nc2c1` as the compound, how does the Potency read?
Answer: inconclusive: 16.4 µM [activator, partial curve]

Question: With `Cc1oc(-c2ccccc2)cc1C(=O)Nc1cccc2ccccc12` as the compound, how does the Potency read?
Answer: inconclusive: 29.1 µM [inhibitor, single point]

Question: With `CC1CCN(S(=O)(=O)c2ccc(C(=O)Nc3ccccc3-c3nc4ccccc4[nH]3)cc2)CC1` as the compound, how does the Potency read?
Answer: active: 16.4 µM

Question: For `CCOc1ccc(NC(=O)N2CCC(c3ccc(C)cc3)C2)cc1` (stereo not drawn), which “activity change, negative = inhibition” value is on record?
Answer: inactive: 29.6%

Question: For `CCOc1ccc(CN(C)C(=O)CNC(=O)c2sc3ccccc3c2Cl)cc1`, which “activity change, negative = inhibition” value is on record?
Answer: inactive: -6.79%

Question: Which Potency does the source give for `Cc1ccc(NC(=O)CNc2cc(S(=O)(=O)N3CCOCC3)ccc2NCC2CCCO2)cc1F` (stereo not drawn) here?
Answer: inconclusive: 8.2 µM [inhibitor, partial curve]

Question: Which Potency does the source give for `COC(=O)c1ccc(NCC(=O)N2CCCCCC2)cc1` here?
Answer: inconclusive: 16.4 µM [activator, partial curve, poor fit]

Question: Which Potency does the source give for `Cc1cc(C(=O)C(=O)N(C)C)c(C)n1-c1ccc(Cl)c(Cl)c1` here?
Answer: inconclusive: 23.1 µM [inhibitor, single point]

Question: With `COCC(C)NC(=O)C(C)N1c2cccc3cccc(c23)S1(=O)=O` (stereo not drawn) as the compound, how does the “activity change, negative = inhibition” value read?
Answer: inactive: -11.5%

Question: With `CCc1nn2c(N)c(/C=C3\C=Nc4ccccc43)c(=O)nc2s1` as the compound, how does the Potency read?
Answer: inactive

Question: With `Cc1ccccc1Cn1ccc(NC(=O)c2cnn3c(C(F)(F)F)cc(-c4ccco4)nc23)n1` as the compound, how does the Potency read?
Answer: active: 7.94 µM

Question: For `O=C(COC(=O)c1cc(S(=O)(=O)N2CCCCC2)ccc1N1CCOCC1)c1ccc(Cl)cc1`, which Potency is on record?
Answer: inconclusive: 16.4 µM [inhibitor, single point]

Question: For `CC(C)Nc1nc2nonc2nc1Nc1ccccc1`, which Potency is on record?
Answer: active: 16.4 µM

Question: Which “activity change, negative = inhibition” value does the source give for `CCCCn1c(N)c(N(CC)C(=O)c2cccc(OC)c2)c(=O)[nH]c1=O` here?
Answer: inactive: -1.79%

Question: For `Cc1ccccc1C(=O)c1cccn1CC(=O)NCCCN1CCc2ccccc2C1`, which Potency is on record?
Answer: inconclusive: 29.1 µM [inhibitor, partial curve, poor fit]

Question: For `O=C(COc1ccc([N+](=O)[O-])cc1)Nc1nnc(-c2cccnc2)s1`, which Potency is on record?
Answer: inconclusive: 25.9 µM [inhibitor, partial curve, poor fit]

Question: With `COc1ccc(OC)c(NC(=O)CN(c2ccc(OC)c(Cl)c2)S(C)(=O)=O)c1` as the compound, how does the “activity change, negative = inhibition” value read?
Answer: inactive: -5.93%

Question: With `CN(CC(=O)Nc1ccccc1N1CCOCC1)S(=O)(=O)c1ccc(F)cc1` as the compound, how does the “activity change, negative = inhibition” value read?
Answer: inactive: -13.8%

Question: For `C=CCOc1ccc(/C=C/C(=O)OCC(=O)NCC2CCCCC2)cc1`, which Potency is on record?
Answer: inconclusive: 29.1 µM [activator, single point]

Question: Which “activity change, negative = inhibition” value does the source give for `Cc1noc(C)c1CSc1ccc2ccccc2n1` here?
Answer: inactive: 22.3%

Question: With `Cc1cccc(C)c1NS(=O)(=O)c1ccc(-c2ccc(=O)[nH]n2)o1` as the compound, how does the Potency read?
Answer: inconclusive: 29.1 µM [activator, partial curve, poor fit]

Question: Which Potency does the source give for `CN(Cc1ccsc1)C(=O)CCc1nnc(CCCc2ccccc2)o1` here?
Answer: inconclusive: 20.6 µM [activator, partial curve]

Question: Which “activity change, negative = inhibition” value does the source give for `O=C(CSc1nnc2c(n1)[nH]c1ccc(F)cc12)NCc1ccc(F)cc1` here?
Answer: inactive: -0.163%

Question: For `CC(c1cccs1)N(C)Cc1nc(CCc2ccccc2)no1` (stereo not drawn), which “activity change, negative = inhibition” value is on record?
Answer: inactive: 6.88%

Question: Which Potency does the source give for `COc1cc(C2C(=O)c3ccccc3C2=O)ccc1O` here?
Answer: inconclusive: 18.3 µM [activator, partial curve, poor fit]

Question: Which “activity change, negative = inhibition” value does the source give for `CCCN(CC(=O)Nc1ccc(Cl)cc1Cl)C(=O)/C=C/c1ccco1` here?
Answer: inactive: 3.57%

Question: Which Potency does the source give for `CCc1cc(/C(Cc2ccccn2)=N\O)c(O)cc1O` here?
Answer: inconclusive: 6.51 µM [inhibitor, partial curve, poor fit]

Question: For `Cn1c(CSCc2ccc(F)cc2)nnc1SCC(=O)Nc1nccs1`, which Potency is on record?
Answer: active: 16.4 µM

Question: For `Cc1ccc2nc(-c3ccc(NC(=S)NC4CC(C)(C)NC(C)(C)C4)cc3)sc2c1`, which Potency is on record?
Answer: inconclusive: 18.3 µM [activator, partial curve]

Question: With `CC1(C)CC(=O)C2=C(C1)Nc1ccccc1S2` as the compound, how does the Potency read?
Answer: inconclusive: 11.6 µM [inhibitor, partial curve, poor fit]

Question: With `Cc1cc(C(=O)COC(=O)Cc2n[nH]c(=O)c3ccccc23)c(C)n1-c1ccc2c(c1)OCCO2` as the compound, how does the Potency read?
Answer: inconclusive: 32.6 µM [inhibitor, single point]

Question: Which Potency does the source give for `CC1CCCC(C)N1S(=O)(=O)c1ccc(NC(=O)CCn2cnc3ccccc3c2=O)cc1` (stereo not drawn) here?
Answer: inconclusive: 9.2 µM [inhibitor, partial curve]

Question: Which “activity change, negative = inhibition” value does the source give for `N#Cc1c(-c2cccs2)cc(-c2cccs2)[nH]c1=O` here?
Answer: inactive: 4.45%

Question: Which “activity change, negative = inhibition” value does the source give for `CCCN(CCC)CCCNC(=O)c1ccc2c(c1)N(CC)C(=O)c1ccccc1S2=O` (stereo not drawn) here?
Answer: inactive: 25.8%

Question: Which “activity change, negative = inhibition” value does the source give for `CCOc1ccc(N2CC(C(=O)NCc3ccc4c(c3)OCO4)CC2=O)cc1` (stereo not drawn) here?
Answer: inactive: -14%

Question: For `O=C(CSc1nc2ccccc2c(=O)n1-c1ccc(F)cc1)NC1CC1`, which “activity change, negative = inhibition” value is on record?
Answer: inactive: 21.9%

Question: With `Cc1ccc(C2C(C#N)=C3N=C(N)c4ccccc4N3C3=C2C(=O)CCC3)cc1` (stereo not drawn) as the compound, how does the “activity change, negative = inhibition” value read?
Answer: inactive: 11.5%

Question: With `Cc1ccccc1Cn1nc(C)c(NC(=O)c2cc(CC(C)C)on2)c1C` as the compound, how does the Potency read?
Answer: active: 25.9 µM

Question: With `Cc1ccc(C)c(Oc2coc3cc(OCC(=O)Nc4ccccc4C(C)C)ccc3c2=O)c1` as the compound, how does the Potency read?
Answer: active: 25.9 µM

Question: For `Cc1sc2nc(SCC(N)=O)n(-c3ccccc3)c(=O)c2c1C`, which “activity change, negative = inhibition” value is on record?
Answer: inactive: -11.9%

Question: Which Potency does the source give for `O=C1N=C(N2CCCCC2)S/C1=C\c1ccncc1` here?
Answer: inconclusive: 18.3 µM [inhibitor, single point]

Question: For `O=C(CCSc1nnc2scc(-c3ccccc3)n12)Nc1nc(-c2ccccc2)ns1`, which “activity change, negative = inhibition” value is on record?
Answer: inactive: -3.05%

Question: For `CC(C)NC(=O)N(C)C[C@H]1Oc2ccc(NC(=O)NC3CCCCC3)cc2C(=O)N([C@H](C)CO)C[C@@H]1C`, which Potency is on record?
Answer: inconclusive: 20.6 µM [activator, single point]

Question: With `CCNC(=O)c1ccc(C23CC4CC(CC(C4)C2)C3)o1` as the compound, how does the “activity change, negative = inhibition” value read?
Answer: inactive: -4.15%

Question: Which Potency does the source give for `CCN(CC)S(=O)(=O)c1ccc(C(=O)OCCN2C(=O)c3cccc4c(N5CCOCC5)ccc(c34)C2=O)cc1` here?
Answer: inconclusive: 1.03 µM [inhibitor, partial curve, poor fit]

Question: Which “activity change, negative = inhibition” value does the source give for `CCOC(=O)c1ccc(NC2=CC(=O)C(=O)c3ccccc32)cc1` here?
Answer: inactive: -5.83%

Question: For `Cc1oc(-c2ccc3c(c2)OCCO3)cc1C(=O)NC(CCC(=O)O)C(=O)O` (stereo not drawn), which Potency is on record?
Answer: inconclusive: 20.6 µM [activator, single point]

Question: With `C#CC(=O)N(c1cc(OC)ccc1OC)C(C(=O)NC1CCCC1)c1cccs1` (stereo not drawn) as the compound, how does the Potency read?
Answer: active: 23.1 µM

Question: For `O=C(Nc1cccc(S(=O)(=O)N2CCCCC2)c1)c1ccccn1`, which “activity change, negative = inhibition” value is on record?
Answer: inactive: 3.89%

Question: With `COc1ccc(-n2cccc2/C=C/[N+](=O)[O-])cc1` as the compound, how does the Potency read?
Answer: active: 23.1 µM

Question: For `CC(/C=C1\SC(=O)N(CCCC(=O)O)C1=O)=C\c1ccccc1`, which Potency is on record?
Answer: inconclusive: 2.31 µM [inhibitor, partial curve]

Question: Which Potency does the source give for `COc1ccc(NC(=O)NCc2ccccn2)cc1` here?
Answer: inconclusive: 18.4 µM [activator, single point]

Question: For `O=[N+]([O-])c1ccccc1S(=O)(=O)N1CCSCC1`, which “activity change, negative = inhibition” value is on record?
Answer: inactive: 14.1%

Question: For `C/C(=N/NC(=O)c1ccco1)c1ccc(NC(=O)c2ccc(Br)o2)cc1`, which Potency is on record?
Answer: inconclusive: 20.6 µM [activator, partial curve]

Question: With `Cc1ccc(S(=O)(=O)Nc2cccc3c2O[C@@H](CN(C)C(=O)Nc2ccc4c(c2)OCO4)[C@H](C)CN([C@@H](C)CO)C3=O)cc1` as the compound, how does the Potency read?
Answer: inconclusive: 23.1 µM [activator, single point]

Question: Which Potency does the source give for `S=c1[nH]nc(-c2ccncc2)n1/N=C/C(Cl)=C\c1ccccc1` here?
Answer: inconclusive: 6.51 µM [activator, single point]

Question: Which “activity change, negative = inhibition” value does the source give for `Cc1onc(-c2ccccc2)c1C(=O)N1CCN(CCc2ccccc2)CC1` here?
Answer: inactive: 14.4%

Question: With `Cc1cc(C)nc(SCc2ccc(C(=O)N/N=C/c3ccccn3)cc2)n1` as the compound, how does the Potency read?
Answer: inconclusive: 16.4 µM [inhibitor, partial curve]

Question: For `O=C(CCc1ccccc1)N[C@@H]1c2ccccc2CC[C@@H]1OCc1ccccc1`, which Potency is on record?
Answer: inconclusive: 16.4 µM [activator, partial curve, poor fit]

Question: For `Cc1cc(C)c(S(=O)(=O)n2cc(C(C)C(N)C(=O)O)c3ccccc32)c(C)c1` (stereo not drawn), which “activity change, negative = inhibition” value is on record?
Answer: inactive: 5.41%

Question: Which Potency does the source give for `O=C(COc1ccccc1C(=O)NCc1ccccn1)Nc1ccc(Br)cc1` here?
Answer: active: 16.4 µM

Question: With `CC(=O)n1nc(-c2ccccc2)nc1NCc1cccs1` as the compound, how does the Potency read?
Answer: inconclusive: 23.1 µM [activator, partial curve]

Question: With `Cc1ccc(S(=O)(=O)Nc2cccc(-n3cnnn3)c2)cc1C(=O)O` as the compound, how does the Potency read?
Answer: inconclusive: 13 µM [activator, partial curve, poor fit]

Question: With `Nc1cc2c(cc1O)CCCC2` as the compound, how does the Potency read?
Answer: inconclusive: 23.1 µM [activator, single point]

Question: Which Potency does the source give for `COc1ccc(Cl)cc1NC(=O)CN1CCC(NC(=O)C2CC2)CC1` here?
Answer: active: 9.2 µM

Question: Which Potency does the source give for `CCN(CC)c1ccc(NC(=O)CN2CCN(S(=O)(=O)c3cc(Cl)ccc3OC)CC2)cc1` here?
Answer: inconclusive: 2.59 µM [inhibitor, partial curve, poor fit]

Question: For `CCOC(=O)C(=O)NCc1ccc(/C=C2/N=C(C)C(C(=O)OCC)=C2O)o1`, which “activity change, negative = inhibition” value is on record?
Answer: inactive: 16%

Question: For `CC(C)(C)c1ccc(-c2nc(N)nc(N)n2)cc1`, which Potency is on record?
Answer: inconclusive: 18.3 µM [activator, partial curve]

Question: With `N#Cc1c(NC(=O)CCn2cnc3ccccc3c2=O)oc(-c2ccccc2)c1-c1ccccc1` as the compound, how does the Potency read?
Answer: inconclusive: 23.1 µM [inhibitor, single point]

Question: Which “activity change, negative = inhibition” value does the source give for `Cc1noc(C)c1C(=O)OCC(=O)Nc1ncc(C(F)(F)F)cc1Cl` here?
Answer: inactive: 0.58%

Question: For `COc1ccccc1NC(=O)CN1CCN(c2ccccc2F)CC1`, which “activity change, negative = inhibition” value is on record?
Answer: inactive: -10.1%

Question: Which “activity change, negative = inhibition” value does the source give for `COCCCNC(=O)CC1C[C@H](C(=O)N2CCCCC2)[C@@]2(CCc3ccccc3)c3[nH]c4ccccc4c3CCN2C1=O` (stereo partly drawn) here?
Answer: inactive: 7.79%

Question: With `CCOC(=O)C1C(=O)N(C(=O)c2ccc(OC)cc2)CC1c1ccccc1` (stereo not drawn) as the compound, how does the Potency read?
Answer: inconclusive: 32.6 µM [activator, partial curve, poor fit]
